Experiments:
[1] = general procedure: hybrid (solid and solution phase) peptide synthesis; [4-(oxymethylphenylacetamidomethyl]resin (B chain); p-benzyloxybenzyl resin (A chain)
[2] = general procedure: hybrid (solid and solution phase) peptide synthesis; p-benzyloxybenzyl resin; settings: whole synthesis, scale 0.25 mmol

“Relaxin-like factor (alpha AAATNPARYCCLSGCTQQDLLTLCPY; beta PTPEMREKLCGHHFVRALVRVCGGPRWSTEA; three disulfide links; H. sapiens)” gave an oxidative folding yield ([1]; oxidative folding step) of 36.8% and an isolated yield ([1]; whole synthesis, overall, scale of the general procedure 0.4 mmol (B chain), 0.25 mmol (A chain)) of 14.9%.
With “A chain(acetamidomethylA10, 4-methylbenzylA24)” the isolated mass ([1]; whole synthesis, overall, scale 0.25 mmol) was 166.5 mg and the crude mass [2] was 372.3 mg.
